Assay results: publication PMC8027031
No constants are given. Whether binding was seen depends on the method and setting. Binding seen in cells or lysates may run through a third protein. Some results given as binding are weak or reduced against the parent protein; the word gives no strength.

Protein sequences, listed by entry. Tags and fused reporters are not part of them.
UniProt Q13951: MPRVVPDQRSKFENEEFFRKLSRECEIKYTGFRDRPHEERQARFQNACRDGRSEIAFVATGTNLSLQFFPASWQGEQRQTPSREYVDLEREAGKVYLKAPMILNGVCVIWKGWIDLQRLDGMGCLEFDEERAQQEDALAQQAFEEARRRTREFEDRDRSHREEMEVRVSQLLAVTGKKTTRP

Biological target: HA-CBFβ (UniProt Q13951)
Test: co-IP; HEK293 cells transfected with Flag-RUNX3, Myc-importin-α1 or Myc-importin-α7, with or without HA-CBFβ and pEGFP-G9a; the precipitating antibody is not named in the legend

## Myc-importin-α7 (from UniProt O60684 1-536)
  binding: binds
